For at least one entry, the source does not settle the construct or the ends of the probe. At least one verdict was read from the data and is not stated in words by the source.
What was measured:
[1] = system: polymerase module (Cft1-Pap1-Pfs2-Fip1-Yth1) (Saccharomyces cerevisiae); test: EMSA; conditions: 50 nM RNA, no Mpe1; 50 nM FAM-RNA, 10% native PAGE 1X TBE, room temperature; recombinant protein; label: 5' 6-FAM
[2] = system: polymerase module (Cft1-Pap1-Pfs2-Fip1-Yth1) + Mpe1; test: EMSA; conditions: 50 nM RNA, affinity of polymerase module not substantially affected by Mpe1; 50 nM FAM-RNA, 10% native PAGE 1X TBE, room temperature; recombinant protein; label: 5' 6-FAM
[3] = system: polymerase module (Cft1-Pap1-Pfs2-Fip1-Yth1) + Mpe1 + Cft2; test: size exclusion chromatography; conditions: RNA restores Mpe1 incorporation in presence of Cft2; SEC: Superose 6 Increase 3.2/300 in SEC 50; recombinant protein; label: 5' 6-FAM

Measured: binding result

UUUAUAGUUAUGUUAGUAUUAAGAACGUUAUUUAUAUUUCAA [precleaved CYC1 (pcCYC1), 42 nt]
binds: all assays above
